Results from US20070072209A1, “Methods of treatment and diagnosis of Kaposi's sarcoma (KS) and KS related diseases” (priority 2005, published 2007).
Some of these results come from one statement about several compounds together.

System: KSHV
Test: Immunofluorescent staining for latent (LANA-1/ORF73) and early lytic (ORF59) viral proteins after PMO-AS
Format: cell-based
Conditions: PMO-AS-treated KSHV-infected DMVEC
From the text: KSHV-infected DMVEC. DMVECs were used as an in vitro model for examining cancerous transformation and viral replication, based, inter alia, on that fact that neoplastic cells in KS tumors are predominantly of vascular origin, whereas KSHV is primarily found in cells of endothelial origin. Specifically, a previously described DMVEC system (Moses et al., J. Virol. 73:6892-6902, 1999) was used for studying infection and transformation by KSHV. Briefly, DMVEC's were immortalized with the E6/E7 genes of human papillomavirus (HPV)-16 prior to infection with KSHV. […] KSHV was obtained from the supernatant of KSHV-infected B-cell lines (e.g., TPA-stimulated BCBL-1 cells). Infection was verified by DNA PCR for amplification of the KS330 BamH1 fragment of the ORF 26 gene, and RT-PCR for the spliced mRNA from the ORF29 gene. The percentage of latently infected cells was determined by immunofluorescent staining for LANA/ORF73. Lytic induction was evaluated with antibodies against an early lytic protein ORF59/PF-8 and a late lytic glycoprotein ORF K8.1A/B. DMVEC were used for experiments when 90% of cells expressed ORF73. In the absence of chemical induction, 2-5% of infected cells expressed ORF59 with approximately 10% of the ORF59-positive cells expressing K8.1A/B. Lytic replication can be induced, however, using phorbol esters such as […] (PMA) providing the ability to look for host genes involved in, or modulated by the lytic cycle as well.
To ascertain whether PMO-AS treatment could be indirectly influencing cell phenotype through an effect on KSHV lytic replication, cells treated with PMO-AS against c-Kit, RDC1 and Neuritin were evaluated by immunofluorescent staining for expression of latent (LANA-1/ORF73) and early lytic (ORF59) viral proteins as previously described (Moses, 1999).

Substance	expression of ORF59 (early lytic viral protein)
KIT: FITC-labeled PMO targeting the start codon of c-Kit, CGCCTCTCATCGCGGTAGCTGCG (SEQ ID NO:21) (all phosphorodiamidate morpholino (PMO); FITC label attached, position not given here)	less than 2 % of cells in culture
Neuritin: PMO antisense to Neuritin, TTAACTCCCATCCTACGTTTAGTCA (SEQ ID NO:19) (all phosphorodiamidate morpholino (PMO); delivered paired with partially complementary DNA oligo (Special Delivery))	less than 2 % of cells in culture
RDC-1: PMO antisense to RDC-1, GAAGAGATGCAGATCCATCGTTCTG (SEQ ID NO:15) (all phosphorodiamidate morpholino (PMO); delivered paired with partially complementary DNA oligo (Special Delivery))	less than 2 % of cells in culture
